Test results as given in publication PMC7904762.
These are yes or no findings as the source states them, for the method shown. In cells and extracts the contact can be indirect. Binding calls can cover weak binding; strength is not graded here.

Protein sequences, listed by entry. Tags and fused reporters are not part of them. Lines headed by an entry give the natural chain unless they say otherwise; changes in a name come on top.
UniProt Q6WKZ4: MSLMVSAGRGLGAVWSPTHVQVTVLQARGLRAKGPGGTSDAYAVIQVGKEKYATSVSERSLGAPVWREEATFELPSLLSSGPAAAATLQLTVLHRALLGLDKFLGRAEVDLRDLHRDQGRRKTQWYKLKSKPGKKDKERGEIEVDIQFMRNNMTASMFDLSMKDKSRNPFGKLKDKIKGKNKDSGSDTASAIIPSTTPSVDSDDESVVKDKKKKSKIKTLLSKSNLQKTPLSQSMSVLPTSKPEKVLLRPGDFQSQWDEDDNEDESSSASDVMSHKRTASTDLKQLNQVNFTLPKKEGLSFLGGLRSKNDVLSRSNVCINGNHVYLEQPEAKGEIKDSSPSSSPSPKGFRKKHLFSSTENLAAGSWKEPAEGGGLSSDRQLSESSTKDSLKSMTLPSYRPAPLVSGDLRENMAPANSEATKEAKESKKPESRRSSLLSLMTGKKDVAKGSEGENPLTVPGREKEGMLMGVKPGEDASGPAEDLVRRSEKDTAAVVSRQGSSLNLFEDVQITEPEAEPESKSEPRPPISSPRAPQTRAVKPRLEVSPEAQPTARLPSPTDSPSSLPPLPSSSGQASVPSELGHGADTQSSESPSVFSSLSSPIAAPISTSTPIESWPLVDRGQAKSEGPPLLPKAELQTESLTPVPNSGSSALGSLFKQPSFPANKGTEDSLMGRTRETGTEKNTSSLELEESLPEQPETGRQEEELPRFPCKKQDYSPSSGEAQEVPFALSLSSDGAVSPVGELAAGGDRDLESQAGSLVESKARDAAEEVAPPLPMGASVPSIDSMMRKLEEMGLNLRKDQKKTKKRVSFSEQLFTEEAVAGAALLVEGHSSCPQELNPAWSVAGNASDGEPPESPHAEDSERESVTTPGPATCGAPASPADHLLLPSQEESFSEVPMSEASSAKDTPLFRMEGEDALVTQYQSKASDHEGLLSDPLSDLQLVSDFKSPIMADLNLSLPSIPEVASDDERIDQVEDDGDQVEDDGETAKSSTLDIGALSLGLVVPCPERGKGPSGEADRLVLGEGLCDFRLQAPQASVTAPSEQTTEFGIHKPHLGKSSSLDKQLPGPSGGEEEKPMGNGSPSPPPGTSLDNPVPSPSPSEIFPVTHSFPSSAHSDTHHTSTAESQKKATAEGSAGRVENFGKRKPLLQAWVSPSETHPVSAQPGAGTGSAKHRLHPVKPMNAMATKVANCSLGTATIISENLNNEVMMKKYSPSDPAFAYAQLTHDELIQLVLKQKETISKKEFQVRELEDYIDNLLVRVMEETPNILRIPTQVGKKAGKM
UniProt P08183: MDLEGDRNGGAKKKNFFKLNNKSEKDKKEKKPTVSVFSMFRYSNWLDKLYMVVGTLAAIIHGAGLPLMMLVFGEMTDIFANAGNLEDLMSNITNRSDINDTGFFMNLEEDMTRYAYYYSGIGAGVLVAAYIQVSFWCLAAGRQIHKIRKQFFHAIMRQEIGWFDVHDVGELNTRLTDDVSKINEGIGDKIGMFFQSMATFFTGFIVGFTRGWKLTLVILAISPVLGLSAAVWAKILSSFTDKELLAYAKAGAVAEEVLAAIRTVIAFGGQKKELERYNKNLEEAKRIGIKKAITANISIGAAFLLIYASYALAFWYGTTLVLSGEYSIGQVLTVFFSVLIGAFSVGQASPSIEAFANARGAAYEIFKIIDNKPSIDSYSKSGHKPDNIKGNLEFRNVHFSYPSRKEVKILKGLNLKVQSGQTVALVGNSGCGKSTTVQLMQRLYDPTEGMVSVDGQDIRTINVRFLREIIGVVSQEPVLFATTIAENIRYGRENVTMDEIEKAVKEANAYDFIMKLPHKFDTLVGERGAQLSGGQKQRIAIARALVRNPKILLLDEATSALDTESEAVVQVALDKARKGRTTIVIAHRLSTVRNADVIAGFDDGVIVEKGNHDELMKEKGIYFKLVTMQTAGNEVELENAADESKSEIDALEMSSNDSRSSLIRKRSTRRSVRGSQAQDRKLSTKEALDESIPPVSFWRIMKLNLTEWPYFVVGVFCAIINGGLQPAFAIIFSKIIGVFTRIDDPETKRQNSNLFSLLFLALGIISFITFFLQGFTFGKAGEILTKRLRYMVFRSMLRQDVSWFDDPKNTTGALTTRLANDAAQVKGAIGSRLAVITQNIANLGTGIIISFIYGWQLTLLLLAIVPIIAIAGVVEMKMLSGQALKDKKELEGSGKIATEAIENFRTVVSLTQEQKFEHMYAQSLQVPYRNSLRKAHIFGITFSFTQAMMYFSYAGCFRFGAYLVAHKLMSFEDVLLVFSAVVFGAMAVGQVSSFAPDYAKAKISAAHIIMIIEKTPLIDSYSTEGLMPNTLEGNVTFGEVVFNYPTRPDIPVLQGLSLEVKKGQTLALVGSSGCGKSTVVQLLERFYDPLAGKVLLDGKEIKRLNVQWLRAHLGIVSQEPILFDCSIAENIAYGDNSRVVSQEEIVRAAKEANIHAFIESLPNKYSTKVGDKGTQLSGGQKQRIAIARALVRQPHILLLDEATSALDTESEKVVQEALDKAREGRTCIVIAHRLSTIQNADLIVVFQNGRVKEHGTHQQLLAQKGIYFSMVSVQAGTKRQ

Target: GFP-RCP (GFP-tagged Rab-coupling protein) (UniProt Q6WKZ4)
Assay: co-IP; GFP or GFP-RCP transfected into H1299 cells stably expressing mutant p53 R273H or empty vector; lysates immunoprecipitated with anti-GFP; P-gp detected by western blot

binding: binds
Substance: P-glycoprotein (from UniProt P08183 1-1280)
